Data taken from PubChem BioAssay AID624297 (National Center for Advancing Translational Sciences (NCATS), 2012).
Screen size: about 340,000 compounds; about 6,200 (1.8%) were called active. The inconclusive results got no clear call from the source; some entries with a clear call stand among them for comparison. Calls follow the shape of the dose curve; as a rule, active = well fitted activation curve with a large enough effect; inconclusive = small, poorly fitted or top-dose-only effect; inactive = no such curve, though single readings can be large or run the other way. Potencies of inconclusive entries are doubtful fits and often do not repeat.

Assay: A quantitative high throughput screen for small molecules that induce DNA re-replication in SW480 colon adenocarcinoma cells. Also: nearly all actives have a fitted effect of over 55% in size. As to re-replication activation: % of control where 0% means no effect.
Conditions: Hoechst DNA content imaging, 48 h; re-replication activation: at 46.1 µM (top of the series) unless noted
How it was run: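 First, 250 cells per well were seeded. Next, compound or vehicle (23 nL) was pinned in, plates sat 48 hr at 37 C. Finally Hoechst was added for 40 min before fluorescence scanning.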
Potency is read from the fitted curve at half-maximal effect.

Compound	Potency	re-replication activation
C/C(=N\NC(=O)CCCNc1ccc(C)cc1)c1ccccn1	inconclusive: 18.4 µM [activator, partial curve, poor fit]	
COC(=O)C1=C(C)N(CCc2ccccc2)C(=O)C1(NS(=O)(=O)c1ccc(NC(C)=O)cc1)C(F)(F)F (configuration not stated)	active: 3.26 µM	
CCC(C)NCCOCCOc1ccccc1-c1ccccc1 (configuration not stated)	inconclusive: 29.1 µM [activator, single point]	
Cc1ccccc1OCC(=O)Nc1nc(C)c(C(=O)N(C)C)s1	inconclusive: 25.9 µM [activator, single point]	
CCN1C(=O)C(CC(=O)Nc2ccc(OC)cc2)N(Cc2cccnc2)C1=S (configuration not stated)		inactive: 0.686%
COc1ccc(C(=O)CC(=O)C(=O)Nc2ccccc2)cc1	inconclusive: 1.64 µM [activator, partial curve, poor fit]	
CCC1CN(C(=O)N2CCC(C(=O)NCCc3ccc(OC)c(OC)c3)CC2)c2ccccc2O1 (configuration not stated)	inconclusive: 1.3 µM [activator, partial curve, poor fit]	
O=C(NNC(=O)C1CCN(S(=O)(=O)c2ccccc2C(F)(F)F)CC1)c1ccccc1O	inconclusive: 18.4 µM [activator, single point]	
CC1CCCC(NC(=O)CSC2=Nc3ccccc3C3CC=NN23)C1C (configuration not stated)		inconclusive: 27.3% [activator]
COc1ccc(C(=O)NC2CCCc3c2cnn3-c2cc(F)cc(F)c2)c(OC)c1OC (configuration not stated)		inactive: 1.33%
CC1=C([N+](=O)[O-])C(c2ccc3c(c2)OCO3)N(C)C(=O)N1C (configuration not stated)	inconclusive: 18.4 µM [activator, single point]	
COc1cc(C2NC(=O)NC(c3ccccc3)=C2C(C)=O)c(Br)c(Br)c1O (configuration not stated)	inconclusive: 6.51 µM [activator, single point]	
CCc1cccc(CC)c1NC(=O)CN1CC(C)SC1=NC1CCCCC1 (configuration not stated)	inconclusive: 23.1 µM [activator, partial curve, poor fit]	
Cc1ccccc1C(N)c1ccncc1 (configuration not stated)	inconclusive: 20.6 µM [activator, partial curve, poor fit]	
CCOC(=O)C1CCN(C(=O)COc2ccc(S(=O)(=O)NC(C)C)cc2Cl)CC1	inconclusive: 3.66 µM [activator, partial curve, poor fit]	
O=C(Nc1ccc2c(c1)OCO2)C1CCCCN1S(=O)(=O)c1ccccc1 (configuration not stated)	inconclusive: 32.6 µM [activator, partial curve, poor fit]	
COc1ccccc1/C=C/C1(C(=O)NC2CCCC2)CC(=O)N1c1ccccc1 (configuration not stated)	active: 7.31 µM	

An excerpt from above in order of number of heavy atoms, high to low.
Compound	Potency	re-replication activation
O=C(NNC(=O)C1CCN(S(=O)(=O)c2ccccc2C(F)(F)F)CC1)c1ccccc1O	inconclusive: 18.4 µM [activator, single point]	
Cc1ccccc1OCC(=O)Nc1nc(C)c(C(=O)N(C)C)s1	inconclusive: 25.9 µM [activator, single point]	
CC1=C([N+](=O)[O-])C(c2ccc3c(c2)OCO3)N(C)C(=O)N1C (configuration not stated)	inconclusive: 18.4 µM [activator, single point]	
